PubChem BioAssay AID1508588 – Peter MacCallum Cancer Centre – 2020
Here is an unselected part of about 18,000 reagents tested. 790 of them (4.4%) count as active. 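Calls rest on a combination of fold-change classes in drug and vehicle arms, not all shown here.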 Some reagents were tested in more than one well and are listed for each. No sequences are given here.

Purpose: 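Knock-downs boosting vemurafenib effects on melanoma cell growth or lactate release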 (primary screen)
Cell system: human WM266.4 melanoma cells (BRAF V600 mutant)
Knock-down reagent: siRNA pool against human genes, 40 nM
Timing: 96 h from transfection to read-out
Challenge: vemurafenib 300 nM (about IC25), added 48 h after transfection, for 48 h; comparison arm got DMSO vehicle only
Detection: 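Ratios to non-targeting siRNA for cell gain, counted as DAPI nuclei after minus before drug and averaged over two replicates, and for absorbance-read medium lactate per cell; both binned into fold-change classes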
Reading the numbers: cell gain with vemurafenib: higher = more cell gain than with non-targeting siRNA; lactate per cell with vemurafenib: higher = more lactate made per cell
Call rule: 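a knock-down counts as enhancing when its fold-change classes with vehicle and with vemurafenib, taken together, show a stronger drug effect on cell gain or lactate per cell; exact class pairs not stated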
Calls: active = enhances vemurafenib effect; inactive = no enhancement seen

target | cell gain with vemurafenib | lactate per cell with vemurafenib | outcome
NUDT3 (nudix hydrolase 3) | 0.43 | 0.77 | inactive
ELOVL1 (ELOVL fatty acid elongase 1) | 0.38 | 1.02 | inactive
PPARD (peroxisome proliferator activated receptor delta) | 0.59 | 0.99 | inactive
ACADM (acyl-CoA dehydrogenase medium chain) | 0.56 | 0.9 | inactive
PIGL (phosphatidylinositol glycan anchor biosynthesis class L) | 0.19 | 0.84 | inactive
RCOR3 (REST corepressor 3) | 0.53 | 0.43 | active
POU2AF2 (POU class 2 homeobox associating factor 2) | 0.64 | 1.83 | inactive
LPAR6 (lysophosphatidic acid receptor 6) | 1.1 | 1.3 | inactive
POT1 (protection of telomeres 1) | 0.69 | 0.54 | inactive
ARFGEF3 (ARFGEF family member 3) | 0.69 | 1.11 | inactive
EDRF1 (erythroid differentiation regulatory factor 1) | 0.76 | 1.08 | inactive
KRT6B (keratin 6B) | 0.94 | 1.33 | inactive
SIGLEC9 (sialic acid binding Ig like lectin 9) | 1.07 | 0.7 | inactive
FAM186B (family with sequence similarity 186 member B) | 0.98 | 0.72 | inactive
NKX2-8 (NK2 homeobox 8) | 0.71 | 0.8 | inactive
LSM6 | 0.23 | 2.32 | inactive
TLX1NB (TLX1 neighbor) | 0.35 | 1.09 | inactive
NR2E3 (nuclear receptor subfamily 2 group E member 3) | 0.47 | 1.52 | inactive
SLC30A2 | 0.37 | 0.9 | inactive
DUSP3 (dual specificity phosphatase 3) | 0.85 | 1.14 | inactive
SGCE (sarcoglycan epsilon) | 0.61 | 0.64 | inactive

Next part, starting with the last 3 of the part before.
target | cell gain with vemurafenib | lactate per cell with vemurafenib | outcome
SLC30A2 | 0.37 | 0.9 | inactive
DUSP3 (dual specificity phosphatase 3) | 0.85 | 1.14 | inactive
SGCE (sarcoglycan epsilon) | 0.61 | 0.64 | inactive
POLR3C (RNA polymerase III subunit C) | 0.77 | 0.67 | inactive
H4C3 (H4 clustered histone 3) | 0.77 | 0.15 | active
C1orf52 (chromosome 1 open reading frame 52) | 1.13 | 0.74 | inactive
HTRA4 (HtrA serine peptidase 4) | 0.67 | 1.06 | inactive
AFAP1L1 (actin filament associated protein 1 like 1) | 0.83 | 0.78 | inactive
NKRF (NFKB repressing factor) | 0.87 | 0.88 | inactive
REEP2 (receptor accessory protein 2) | 0.14 | 2.35 | inactive
IGFN1 | 0.44 | 1.39 | inactive
ZNF701 (zinc finger protein 701) | 0.62 | 1.43 | inactive
NETO1 (neuropilin and tolloid like 1) | 0.48 | 1.25 | inactive
RNF148 (ring finger protein 148) | 0.97 | 0.64 | inactive
RNF148 (ring finger protein 148) | 0.9 | 0.76 | inactive
FASTKD2 (FASTK mitochondrial RNA regulator 2) | 0.35 | 1.68 | inactive
